We go through four substances from PMC3402419.

By UniProt entry, the sequences of proteins in these tests, tags left out. Where a name states a change or a piece, a line headed by the entry shows the natural chain unless it says otherwise.
UniProt Q9D0C1: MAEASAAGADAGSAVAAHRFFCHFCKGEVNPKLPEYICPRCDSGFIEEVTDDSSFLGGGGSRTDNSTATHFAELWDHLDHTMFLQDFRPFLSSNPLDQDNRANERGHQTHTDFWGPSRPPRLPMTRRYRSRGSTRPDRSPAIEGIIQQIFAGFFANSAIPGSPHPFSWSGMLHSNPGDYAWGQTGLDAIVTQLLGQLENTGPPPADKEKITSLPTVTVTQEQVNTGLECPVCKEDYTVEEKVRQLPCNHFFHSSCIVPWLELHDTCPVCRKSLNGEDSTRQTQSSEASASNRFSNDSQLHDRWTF
UniProt Q99471: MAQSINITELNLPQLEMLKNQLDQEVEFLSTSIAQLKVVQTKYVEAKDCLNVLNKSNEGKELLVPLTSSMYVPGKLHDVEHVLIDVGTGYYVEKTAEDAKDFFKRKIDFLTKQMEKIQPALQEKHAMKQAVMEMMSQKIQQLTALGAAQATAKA

Results are given in words; binding and its absence hold for the method and conditions named. Binding seen in cells or lysates may run through a third protein. Some binding calls cover weakened binding; strength is not graded here.

For one experiment, the target named is MBP-Rabring7 (UniProt Q9D0C1). Put plainly: pull-down; 20 μl 35S-labeled protein (in vitro translated) with 30 μg MBP-Rabring7 or MBP, 4°C, 2 h, 20 mM Tris-HCl pH 7.4, 150 mM NaCl, 5 mM MgCl2, 0.1% NP40; only the target purified.
For experiment [1], the target named is FLAG-MM-1α expressed in and purified from E. coli (UniProt Q99471). The experiment is described as follows: co-IP; 20 μl 35S-Rabring7 (reticulocyte lysate) mixed with 3 μg purified FLAG-MM-1, 4°C, 2.5 h, 20 mM Tris-HCl pH 8.0, 150 mM NaCl, 1 mM EDTA, 0.4% NP40; precipitated with agarose-conjugated anti-FLAG or mouse IgG; fluorography; only the target purified.

In experiment [2] the target is FLAG-tagged MM-1α (UniProt Q99471). The experiment is described as follows: co-IP; transfected H1299, HEK293 or HEK293T cells, 48 h; about 2 mg cell protein precipitated with agarose-conjugated anti-FLAG (M2) or mouse IgG; Western blot with anti-HA and anti-FLAG. For orientation: In western blotting, separated proteins are transferred to a membrane and probed.
The next experiment deals with HA-MM-1α (UniProt Q99471). Put plainly: co-IP; sequential: H1299 transfected with FLAG-c-Myc, T7-Rabring7 and HA-MM-1; first anti-FLAG agarose, elution with FLAG peptide, then anti-HA; Western blot with anti-T7, anti-HA and anti-FLAG.
In experiment [3] the target is FLAG-tagged MM-1α (UniProt Q99471). Put plainly: co-IP; cells co-transfected with FLAG-MM-1α, T7-Rabring7 and HA-ubiquitin, 48 h; cytoplasm and nucleus fractionated, extracts precipitated with anti-FLAG; Western blot with anti-HA, anti-FLAG and anti-T7.

Take “35S-labeled MM-1α (from UniProt Q99471-1 1-154)”: the binding result with MBP-Rabring7 was “binds”.
With “35S-labeled Rabring7 (from UniProt Q9D0C1 1-305)”, the binding result in experiment [1] is “binds”.
As to HA-Rabring7 (from UniProt Q9D0C1 1-305), the binding result in the experiment with FLAG-tagged MM-1α [2] was “binds”.
As to T7-Rabring7 (from UniProt Q9D0C1 1-305), the binding entry with HA-MM-1α and with FLAG-tagged MM-1α [3] was “binds” each time.
